Numbering of substitutions follows the chain as printed. These are yes or no findings as the source states them, for the method shown. Some binding calls cover weakened binding; strength is not graded here. Values belong to the binder of their own block, whether it stands above or below them. Ends that are not written are not given here.
Experiments:
[1] = target: Ac-K311 tau in human Braak VI Alzheimer's disease post-mortem brain (neurofibrillary tangles, plaque-associated pathology) (human) (UniProt P10636); test: immunohistochemistry, cortical sections of four AD patients, antibody at 1:25 (FIG. 14B)
[2] = target: Ac-K280 tau in human Braak VI Alzheimer's disease post-mortem brain (neurofibrillary tangles, plaque-associated pathology) (human) (UniProt P10636); test: immunohistochemistry, cortical sections of four AD patients, antibody at 1:25 (FIG. 14A)
[3] = target: Ac-K280 tau in human Braak VI Alzheimer's disease post-mortem brain (neurofibrillary tangles, plaque-associated pathology) (human) (UniProt P10636); test: immunohistochemistry, AD brain (legend of FIG. 7)
[4] = target: Ac-K280 tau in human Braak VI Alzheimer's disease post-mortem brain (neurofibrillary tangles, plaque-associated pathology) (human) (UniProt P10636); test: immunohistochemistry, human Braak VI AD brain sections, antibody at 1:25

- binding [1]: binds
B1: 14G8 (antibody, V domains shown)
VH: EVQLQQSGAELVRPGSSVKMSCKTSGYTFTNYGLNWVKQRPGQGLEWIGYIYIGNGYTDYNENFKGKATLTSDTSSSTAYMQLSSLTSEDSAIYFCARWRPGYFFDYWGQGTTLTVSS
VL: DVLMTQTPLSLPVGLGDQASISCRSSQNIVHSNGDTYLEWYLLKPGQSPQLLIYKVSNRFSGVPDRFSGGGSGTDFILKISRVEAEDLGVYYCFQSSLVPLTFGAGTKLELK

- binding [1]: binds
B2: 15E8 (antibody, V domains shown)
VH: EVQLQQSGAELVRPGSSVKMSCKTSGYTFTNYGLNWVKQRPGQGLEWIGYIYIGNGYTDYNENFKGKATLTSDTSSSTAYMQLSSLTSEDSAIYFCARWRPGYFFDYWGQGTTLTVS
VL: B1 VL with G14S, S32T, I77T, Y92F

- binding [2]: binds
- binding [3]: binds
- binding [4]: binds
B3: 19B6 (antibody, V domains shown)
VH: EVQLQQSGAEFVRPGASVKLSCTVSGLNIEDDYIQWLKQRPEQGLEWIGWIDPENGDPKYASKFQGKATLTADTSSKIAYLHLSSLTSEDTAVYYCATRGLWGQGTTLTVSS
VL: QIVLTQSPAIMSASLGERVTMTCTASSSVSSSYFHWYQQKPGSSPKLWIYSTSNLASGVPVRFSGSGSGTSYSLTISSMEAEDAATYYCHQYHRSPLTFGAGTKLELK
notes: Used as hybridoma supernatant in the peptide ELISA; also called Ac-K280 clone 19B6

- binding [2]: binds
- binding [3]: binds
- binding [4]: binds
B4: 17G8 (antibody, V domains shown)
VH: B3 VH
VL: B3 VL
notes: Used as hybridoma supernatant in the peptide ELISA; also called Ac-K280 clone 17G8

From US20240376188A1 (UNIVERSITY OF NORTH CAROLINA AT CHAPEL HILL, published 2024)
